Some entries share one result that the patent states for a list of compounds.
Tested on: kidney bean leaves
Experiment: Phytotoxicity evaluation of kidney bean leaves after Test Example 2
Format: in vivo
Conditions: summary of Test Example 2
Description: Kidney bean leaves were cut into squares that measured 2.5 cm on one side, and the cut leaves were placed on absorbent cotton moistened with water. Ten first instar larvae of Thrips palmi were released thereon. 30 mL of the agricultural composition diluted 500 times with water was sprayed on the kidney bean leaves using a hand spray. After air drying, the larvae were kept in a constant temperature chamber at 25° C. One day after the treatment, life and death was observed, and the death rate was calculated. In addition, the state of the kidney bean leaves after the test was observed, and the phytotoxicity was also evaluated.
Evaluation Criteria for Phytotoxicity
• −: No change on the leaf surface • ±: Slight damage is recognized on the leaf surface • +: Damage is recognized on part of the leaf surface • ++: Damage is recognized on the entire surface of the leaf surface

CCCCCCCCCCCCN1CCCC1=O [Comparative Example 8, N-lauryl-2-pyrrolidone]
phytotoxicity symptoms for plants (in words): strong phytotoxic symptoms were exhibited at the same time under the conditions of exhibiting a high insecticidal effect

Source: patent US20250176547A1, “AGRICULTURE COMPOSITION” (Nippon Kayaku Kabushiki Kaisha, priority 2022, published 2025)
